Measurements reported in paper PMC7616792, “The structural mechanism of dimeric DONSON in replicative helicase activation” (Molecular cell, 2023).
These are yes or no findings as the source states them, for the method shown. For part of these data: In cells and extracts the contact can be indirect. Tags and fused reporters may be left off the sequences shown. Each block holds one binder with its values, some of them ahead of it.

Assays:
[1] = molecular target: T1, recombinant FLAG5, His6-tagged GINS (Psf1, Psf2, Psf3 and Sld5) (Xenopus laevis) (UniProt Q7ZT47+Q7ZT46+Q7ZT01+Q7ZT48); assay: co-IP; recombinant FLAG-tagged GINS immunoprecipitated after incubation with recombinant DONSON variants; blot with an anti-DONSON antibody (Figure S5B); both purified
T1 sequence 1: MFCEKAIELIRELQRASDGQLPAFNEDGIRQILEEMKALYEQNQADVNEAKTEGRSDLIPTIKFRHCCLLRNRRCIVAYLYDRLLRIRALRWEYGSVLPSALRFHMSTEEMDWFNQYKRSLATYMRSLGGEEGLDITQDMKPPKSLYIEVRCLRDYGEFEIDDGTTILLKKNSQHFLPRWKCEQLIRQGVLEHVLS
T1 sequence 2: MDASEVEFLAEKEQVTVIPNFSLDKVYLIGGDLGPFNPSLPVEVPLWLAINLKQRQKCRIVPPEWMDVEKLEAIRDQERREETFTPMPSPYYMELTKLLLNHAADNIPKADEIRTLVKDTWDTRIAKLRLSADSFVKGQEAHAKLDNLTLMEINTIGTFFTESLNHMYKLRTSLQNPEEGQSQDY
T1 sequence 3: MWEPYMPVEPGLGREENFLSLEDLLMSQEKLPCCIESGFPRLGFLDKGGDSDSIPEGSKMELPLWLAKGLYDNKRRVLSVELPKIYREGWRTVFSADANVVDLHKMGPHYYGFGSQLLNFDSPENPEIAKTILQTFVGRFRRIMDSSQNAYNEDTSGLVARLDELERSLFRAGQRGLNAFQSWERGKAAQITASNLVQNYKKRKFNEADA
T1 sequence 4: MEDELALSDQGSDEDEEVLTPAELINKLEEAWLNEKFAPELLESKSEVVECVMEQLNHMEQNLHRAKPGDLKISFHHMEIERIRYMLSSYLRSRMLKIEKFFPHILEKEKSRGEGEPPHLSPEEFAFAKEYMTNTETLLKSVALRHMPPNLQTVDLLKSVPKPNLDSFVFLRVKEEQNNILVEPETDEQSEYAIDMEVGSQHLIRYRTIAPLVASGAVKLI

[2] = molecular target: T2, human DONSON Met446Thr, GFP-tagged (second copy FLAG-tagged) (human) (UniProt Q9NYP3); assay: co-IP; 293FT cells transfected with GFP-tagged (and FLAG-tagged) DONSON, lysed with 0.5-1% NP40 and benzonase; GFP-DONSON captured on GFP-Trap agarose beads 5 h at 4°C, washed with 100-300 mM NaCl; blots for FLAG, GINS, MCM2, PCNA
T2 sequence: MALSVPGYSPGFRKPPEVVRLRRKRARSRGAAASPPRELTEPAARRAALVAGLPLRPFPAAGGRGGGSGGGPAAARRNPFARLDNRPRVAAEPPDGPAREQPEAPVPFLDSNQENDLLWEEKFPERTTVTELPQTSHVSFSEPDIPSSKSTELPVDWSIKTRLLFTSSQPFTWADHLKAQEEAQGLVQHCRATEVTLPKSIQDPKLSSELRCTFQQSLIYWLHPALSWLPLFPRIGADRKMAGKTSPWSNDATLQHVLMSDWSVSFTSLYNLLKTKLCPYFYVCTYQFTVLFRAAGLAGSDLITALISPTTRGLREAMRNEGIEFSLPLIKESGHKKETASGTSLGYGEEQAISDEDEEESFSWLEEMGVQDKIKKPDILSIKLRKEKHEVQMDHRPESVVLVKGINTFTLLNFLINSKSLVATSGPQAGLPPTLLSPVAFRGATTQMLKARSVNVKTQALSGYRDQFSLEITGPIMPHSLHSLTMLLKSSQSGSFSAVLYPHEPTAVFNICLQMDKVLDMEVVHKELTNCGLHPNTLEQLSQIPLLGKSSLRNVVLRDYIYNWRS

[3] = molecular target: T3, human DONSON Trp228Leu, GFP-tagged (second copy FLAG-tagged) (human) (UniProt Q9NYP3); assay: as above
T3 sequence: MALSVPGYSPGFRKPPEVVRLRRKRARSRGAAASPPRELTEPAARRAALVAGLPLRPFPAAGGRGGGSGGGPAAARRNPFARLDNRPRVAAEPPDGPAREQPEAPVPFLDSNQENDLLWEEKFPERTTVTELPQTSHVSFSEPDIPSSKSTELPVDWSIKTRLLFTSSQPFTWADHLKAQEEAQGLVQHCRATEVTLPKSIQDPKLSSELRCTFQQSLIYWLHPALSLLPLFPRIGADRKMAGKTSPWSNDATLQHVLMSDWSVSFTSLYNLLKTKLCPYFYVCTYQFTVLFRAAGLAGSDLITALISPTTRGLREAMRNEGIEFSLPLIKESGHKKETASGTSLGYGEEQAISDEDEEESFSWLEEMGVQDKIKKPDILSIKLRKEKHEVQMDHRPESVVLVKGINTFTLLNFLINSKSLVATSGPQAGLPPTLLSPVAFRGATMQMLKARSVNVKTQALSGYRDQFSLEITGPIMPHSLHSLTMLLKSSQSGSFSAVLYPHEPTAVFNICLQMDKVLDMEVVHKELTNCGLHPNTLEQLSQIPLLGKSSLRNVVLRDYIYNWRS

binding [1]: no binding
B1: DONSONΔ24 (truncation of residues 1–24) (domain or fragment, Xenopus laevis, UniProt Q5U4U4 25-579, looked up)
chain: RSRSEASKTGLSPFSPGDVIKRVPGLRPFSPGPNKGAGVKRRNPFASLENTVCSPVKRRAETVAEYGAASLEPRALSAVRPSCLGQDSPEPPQFNSVEDVIWGDPLAADADPLVKTESPEKPAPACEIPKGSVTFPADWSLKTRLLFTSSHSFSWADHLKAQEEAQGLVMQCRATAVNLPHSIQEPKLSTDLRCAFQQSLVHWIHPSLPWVQLFPRIGVDRKMAGKNTPWSQDESLQQVLMSEWALSFTSLYNLLKAKLCPYFYVCTYQFTVLFRAAGLAGSDVITAVMSPTTRGLREAMKNEGITFSQPLVEDDTGKKQKKPEAASQGDINPEKENGTAEADEASDESDEDESFSWLEEMGVEDKIKKPDSISIKLRKEKNEVKLDHKPESVVLVKGTNTFTLLNFLINCKSIVAAAGLQAGLPPTLLSPVAFRGATMHALKARSVNVKTRVNSGYKDQFSLEITGPIMPHSLHSLTMLLQSAQRGSFSAGLYTHEPTAVFNTPIHSQAVKEISADLQNCGLHPCTVEQLTQVNELGKLSLRHLEMTDYRYTWK
notes: DONSON, Xenopus laevis, without residues 1-24; See the note of m17 on a possible Myc tag; also called DONSON D24 (D1-24); pET28a-DONSON Δ24 (1-24 removed); source: E. coli BL21 (DE3), purified (Ni-NTA)

binding [2]: no binding
B2: human DONSON Met446Thr, GFP-tagged (second copy FLAG-tagged) (protein, UniProt Q9NYP3 1-566)
chain: MALSVPGYSPGFRKPPEVVRLRRKRARSRGAAASPPRELTEPAARRAALVAGLPLRPFPAAGGRGGGSGGGPAAARRNPFARLDNRPRVAAEPPDGPAREQPEAPVPFLDSNQENDLLWEEKFPERTTVTELPQTSHVSFSEPDIPSSKSTELPVDWSIKTRLLFTSSQPFTWADHLKAQEEAQGLVQHCRATEVTLPKSIQDPKLSSELRCTFQQSLIYWLHPALSWLPLFPRIGADRKMAGKTSPWSNDATLQHVLMSDWSVSFTSLYNLLKTKLCPYFYVCTYQFTVLFRAAGLAGSDLITALISPTTRGLREAMRNEGIEFSLPLIKESGHKKETASGTSLGYGEEQAISDEDEEESFSWLEEMGVQDKIKKPDILSIKLRKEKHEVQMDHRPESVVLVKGINTFTLLNFLINSKSLVATSGPQAGLPPTLLSPVAFRGATTQMLKARSVNVKTQALSGYRDQFSLEITGPIMPHSLHSLTMLLKSSQSGSFSAVLYPHEPTAVFNICLQMDKVLDMEVVHKELTNCGLHPNTLEQLSQIPLLGKSSLRNVVLRDYIYNWRS

binding [3]: no binding
B3: human DONSON Trp228Leu, GFP-tagged (second copy FLAG-tagged) (protein, UniProt Q9NYP3 1-566)
chain: MALSVPGYSPGFRKPPEVVRLRRKRARSRGAAASPPRELTEPAARRAALVAGLPLRPFPAAGGRGGGSGGGPAAARRNPFARLDNRPRVAAEPPDGPAREQPEAPVPFLDSNQENDLLWEEKFPERTTVTELPQTSHVSFSEPDIPSSKSTELPVDWSIKTRLLFTSSQPFTWADHLKAQEEAQGLVQHCRATEVTLPKSIQDPKLSSELRCTFQQSLIYWLHPALSLLPLFPRIGADRKMAGKTSPWSNDATLQHVLMSDWSVSFTSLYNLLKTKLCPYFYVCTYQFTVLFRAAGLAGSDLITALISPTTRGLREAMRNEGIEFSLPLIKESGHKKETASGTSLGYGEEQAISDEDEEESFSWLEEMGVQDKIKKPDILSIKLRKEKHEVQMDHRPESVVLVKGINTFTLLNFLINSKSLVATSGPQAGLPPTLLSPVAFRGATMQMLKARSVNVKTQALSGYRDQFSLEITGPIMPHSLHSLTMLLKSSQSGSFSAVLYPHEPTAVFNICLQMDKVLDMEVVHKELTNCGLHPNTLEQLSQIPLLGKSSLRNVVLRDYIYNWRS
